{"source": "patent US10010584B2", "about": "“Treatment of depressive disorders” (Blanchette Rockefeller Neuroscience Institute, priority 2004, dated 2018)", "origin": "cited, not measured here", "target": "PKC", "conditions": "cited from earlier work", "note": "For at least one compound, name, drawing or mass did not settle the structure.", "data": [{"smiles": "CC(C)=CCC/C(C)=C/CC/C(C)=C/CSc1nc[nH]n1", "note": "[Farnesyl thiotriazole]", "values": [{"measurement": "Kd", "setting": "activates PKC", "result": 2.5, "unit": "µM"}, {"measurement": "potency compared with dioleoylglycerol", "result": "equipotent with dioleoylglycerol"}]}]}
